Consider one molecule from patent US20140011746A1 (WISCONSIN ALUMNI RESEARCH FOUNDATION, published 2014).

In the experiment the target is PI3K. Nature of the experiment: co-immunoprecipitation from cell lysates.

Results are given in words; binding and its absence hold for the method and conditions named. In cells and extracts the contact can be indirect. A result given as binding can be weak or reduced; the word gives no strength.

B1: human syndecan-1 (receptor)
chain: QIVATNLPPEDQDGSGDDSDNFSGSGAGALQDITLSQQTPSTWKDTQLLTAIPTSPEPTGLEATAASTSTLPAGEGPKEGEAVVLPEVEPGLTAREQEATPRPRETTQLPTTHQASTTTATTAQEPATSHPHRDMQPGHHETSTPAGPSQADLHTPHTEDGGPSATERAAEDGASSQLPAAEGSGEQDFTFETSGENTAVVAVEPDRRNQSPVDQGATGASQGLLDRKEVLGGVIAGGLVGLIFAVCLVGFMLYRMKKKDEGSYSLEEPKQANGGAYQKPTKQEEFYA
notes: Endogenous Sdc1 of human cells, immunoprecipitated from cell lysates; also called hSdc1; Sdc1
On to B1, for which the binding result is given as “binds”.
